## Results of single-concentration screens

Chains of the proteins cited; added tags and fusions are not shown. Residues count along the entry.
UniProt Q8IDJ8, 1-583: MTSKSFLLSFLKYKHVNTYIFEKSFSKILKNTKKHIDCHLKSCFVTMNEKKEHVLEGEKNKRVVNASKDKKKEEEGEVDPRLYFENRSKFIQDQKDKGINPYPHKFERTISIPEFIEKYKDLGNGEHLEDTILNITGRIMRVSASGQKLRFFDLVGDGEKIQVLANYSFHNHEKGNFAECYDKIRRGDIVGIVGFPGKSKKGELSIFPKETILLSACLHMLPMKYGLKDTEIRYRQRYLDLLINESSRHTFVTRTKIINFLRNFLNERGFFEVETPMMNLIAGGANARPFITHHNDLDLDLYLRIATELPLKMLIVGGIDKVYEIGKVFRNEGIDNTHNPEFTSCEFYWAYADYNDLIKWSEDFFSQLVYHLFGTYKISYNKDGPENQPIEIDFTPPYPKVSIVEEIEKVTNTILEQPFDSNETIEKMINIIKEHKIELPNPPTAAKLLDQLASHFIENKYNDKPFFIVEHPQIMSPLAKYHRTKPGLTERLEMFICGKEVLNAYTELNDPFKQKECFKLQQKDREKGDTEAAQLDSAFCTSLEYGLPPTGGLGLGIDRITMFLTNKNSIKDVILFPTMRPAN
UniProt A4I591, 1-473: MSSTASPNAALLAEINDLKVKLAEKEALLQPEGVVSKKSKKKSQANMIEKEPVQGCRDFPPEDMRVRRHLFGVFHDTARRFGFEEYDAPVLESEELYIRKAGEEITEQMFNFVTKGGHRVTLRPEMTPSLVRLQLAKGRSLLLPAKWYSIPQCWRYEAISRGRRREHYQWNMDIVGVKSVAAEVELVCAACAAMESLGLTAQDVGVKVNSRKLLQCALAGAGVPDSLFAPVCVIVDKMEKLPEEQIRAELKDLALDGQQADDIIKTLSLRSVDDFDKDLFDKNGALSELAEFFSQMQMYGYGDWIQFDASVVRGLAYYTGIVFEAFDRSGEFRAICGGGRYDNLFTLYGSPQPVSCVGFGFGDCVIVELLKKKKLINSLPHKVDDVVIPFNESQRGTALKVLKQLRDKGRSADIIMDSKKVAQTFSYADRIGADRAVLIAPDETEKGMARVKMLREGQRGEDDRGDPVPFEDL

The values are deposited in ChEMBL (CHEMBL3988442, “University of Dundee, Small-Polar-MMV Screening Library” (2021)).

Leishmania in macrophages: 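Cell assay of Leishmania donovani living inside macrophages; the read-out is not stated. Concentration: 30 µM. Direction is inferred from retests: higher values go with stronger inhibition. Size under these conditions: about 69,000 compounds, about 1,000 of them at 50% or above in at least one test.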
PfKRS1: 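Lysine-tRNA ligase, Plasmodium falciparum 3D7 (UniProt Q8IDJ8). Enzyme assay of the cytosolic lysyl-tRNA synthetase in 384-well plates, read by luminescence. Tested at 30 µM. Higher reads as stronger inhibition, judged from the few compounds that gave an IC50. About 69,000 compounds were tested under these conditions; 0.071% (about 49) showed 50% or more at least once.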
LiHisRS: 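Histidine-tRNA ligase, Leishmania infantum (UniProt A4I591). Enzyme assay of histidyl-tRNA synthetase; the read-out is not stated. Concentration: 30 µM. The record gives no direction; compounds that gave an IC50 in retests scored well above the rest, so higher reads as stronger inhibition. The assay is labelled LdHisRS but filed under L. infantum. About 69,000 compounds were tested under these conditions; 0.6% (about 410) showed 50% or more at least once.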

The filed quantity is “Percent Effect” (%).
How 0% and 100% were set is not recorded. Most values in the screen are low, and negative values occur.
This is an unselected part of the compounds tested.
Two or more numbers in one place are separate tests of the same structure; such repeats can differ widely.
A dash means the value is not listed here; it may have been measured.

structure	Leishmania in macrophages	PfKRS1	LiHisRS
O=C(O)C(F)(F)F.O=C(O)C(F)(F)F.[H][C@@]12CN(Cc3nccs3)C[C@@H](C(=O)NC3CCCC3)[C@]1([H])CCO2	-15.13	-	-
CCC(C)CNCC1(S(C)(=O)=O)CCOCC1 (centres unmarked)	-1.533	0.9164	-3.896
CC(NCc1ccccn1)c1cc2c(cc1Br)OCCO2 (centres unmarked)	16.93	3.815	27.27
CN(CC(=O)NC(C)(C)C)Cc1cccc2c1OCCO2	16.54	-3.345	9.302
O=C1COC2(CCN(Cc3cccnc3)CC2)CN1c1ccccc1	-	4.258	15.45
c1cnnc(N2CCCC(NCc3nc(-c4ccco4)no3)C2)c1 (centres unmarked)	-32.28	-3.286	0.9259
CCC1(CO)CCCN(C(=O)c2cc(COc3cccc(F)c3)[nH]n2)C1 (centres unmarked)	65.29	4.153	18.09
Cn1cc(CN2CCC3(CC2)CC(=O)Nc2ccccc23)cn1	9.765 and 39.63	5.248	17.54
CCCc1noc(C(C)N2CCN(Cc3nc(C)c(C)o3)CC2)n1 (centres unmarked)	41.17	2.041	20.18
O=S(=O)(c1cccs1)N1CCC(c2nc(-c3cccs3)no2)CC1	16.68	-3.917	5.983
O=C(O)C(F)(F)F.[H][C@@]12OCCN(CCOCc3ccccc3)[C@@]1([H])CC[C@@H]2OCC	29.83	-	-
Cc1cccc(CN2C[C@H](OCc3csc(C)n3)[C@H]3COC[C@H]32)n1	-	-2.16	9.677
O=C(Nc1cc(-c2ccccc2)on1)N1CCN(CCO)CC1	49.79	4.822	9.524
Cn1cccc1C(=O)N1CCC2(CC1)CCN2S(C)(=O)=O	4.478	5.841	2.632
COCCN1CC2(CCC1=O)CCN(Cc1cc(F)ccc1Cl)CC2	-8.552	1.134	12.5
O=C(CCc1cccnc1)Nc1ccc(OCC2CCOCC2)cc1	31.95	-0.9416	11.67
Cc1nn(CC(C)C)cc1S(=O)(=O)N(C)Cc1nonc1C	-40.41	-0.3719	8.511
[H][C@@]12COC[C@@H](C(=O)N3CCCO3)[C@]1([H])CN(Cc1c(C)noc1C)C2	29.11	-	-
COCCNC(=O)[C@]12COC[C@H]1CN(c1cc(OC)ncn1)C2	-	0.2773	7.018
N#CCC1CC(c2ccc(F)cc2)=NO1 (centres unmarked)	-0.2733	-2.062	-1.235
O=C(NCC1(O)CCCCC1)c1coc(COc2cccc(F)c2)n1	-27.64	19.8	3.947
CCc1nccn1CC(=O)Nc1cccc(N2CCCC2)c1	24.19	0.5264	15.94
O=C(NC1CC1)c1cnc(-c2noc3cc(N4CCCCC4)ccc23)s1	22.3	2.817	1.709
c1cc(CN2CCCC(c3nnc(-c4cnccn4)o3)C2)ccn1 (centres unmarked)	17.34	-0.05324	10
O=C(O)C(F)(F)F.O=C(O)C(F)(F)F.[H][C@@]12CCN(Cc3ccsc3)C[C@]1([H])[C@@H](CN1CCOCC1)OC2	-10.28	-	-
COc1cccc(-c2noc(C3CCN(Cc4ccccc4F)C3)n2)c1.Cl (centres unmarked)	-16.15 and -5.296	-	-
O=C(CCc1ccccn1)NC1CCN(c2cccc(Cl)c2)C1 (centres unmarked)	-17.1	-4.989	2.083
COCCNc1cc(-c2ccccc2C(N)=O)c2cc[nH]c2n1	21.39	-1.57	-9.677
O=C1CCOCCN1Cc1ccc(C(F)(F)F)c(F)c1	-40.03	3.453	10.83
C[C@@H]1CN(CCc2ccccc2)C[C@]12CCN(CC(=O)N(C)C)C2=O	-	2.138	11.54
COc1ccc(CN2CC(O)CN(C(=O)C3CCC3)CC2=O)cc1 (centres unmarked)	-12.66	6.134	6.122
CCS(=O)(=O)N1CCC[C@]2(C(=O)N(C)C)CN(c3ncccn3)C[C@@H]2C1	-	-0.4983	18.87
Cc1c[nH]c(CN2CCOC(c3ccc(Cl)c(Cl)c3)C2)c(C)c1=O (centres unmarked)	7.286	1.272	17.14
c1cc(CNCC2CNc3ccnn3C2)cc(N2CCCCC2)n1 (centres unmarked)	18.01	4.573	45.95
CC(C)C[C@H](N)c1nnc(SCC(=O)Nc2ccc(Br)cc2)o1.Cl	13.59 and 0.2706	-	-
CCN(CC1CCOC1)C(=O)NCc1ccc(-n2cncn2)nc1 (centres unmarked)	-7.597	1.321	16.44
Cc1ccc2cnn(CCC(=O)Nc3nc(C)c(C)s3)c2c1	-23.14	-0.8685	5.172
Cc1noc(C)c1CN1CCO[C@H]2CN(C(=O)N3CCCC3)C[C@H]21	-	3.167	15.04
c1ccc(C(CC2CN(Cc3ncc[nH]3)CCO2)c2ccccc2)cc1 (centres unmarked)	-14.15	-3.307	0
O=C(O)C(F)(F)F.O=C1N(Cc2cccc(F)c2)CCC12CCN(c1ccccn1)CC2	18.11	-	-
Cc1ccc(CN(C)C(=O)CN2CCCC2Cn2cncn2)cc1 (centres unmarked)	-7.757	4.325	33.33
O=C(CCC1CCN(Cc2ccncc2)CC1)Nc1ccccc1Cl	-28.93	2.097	6.849
Cc1[nH]ccc1C(=O)Nc1cccc(CN2CCC(O)CC2)c1	23.32	8.183	17.14
O=C(NCc1csc2ccc(Cl)cc12)c1cc2n(n1)CCNC2	-65.03	-6.357	-3.614
Cc1ccc(C(=O)NC2CCCN(c3ncccn3)C2)cn1 (centres unmarked)	-10.61	1.491	3.306
Cc1ccc(C(=O)N2CC[C@@]3(O)CCN(C(=O)N(C)C)C[C@H]3C2)cc1Cl	-	1.774	-2.128
O=C(NC1CC2(CCN(CCO)CC2)Oc2ccccc21)c1csnn1 (centres unmarked)	44.27	4.15	20
COc1ccc(CN2CCC3(CC2)NC(=O)CC3c2ccncc2)cc1.O=C(O)C(F)(F)F.O=C(O)C(F)(F)F (centres unmarked)	-18.66	-	-
Cc1csc(N2CCCN(C(=O)Cn3cncn3)CC2)n1	-12.54	1.173	16.36
CC(C)OCCCNC(=O)CC1(Cn2cnnn2)CCCCC1	9.047 and -1.77	6.436	18.42
O=C(O)C(F)(F)F.O=C(O)C(F)(F)F.[H][C@@]12CN(Cc3scnc3C)C[C@H](C(=O)NCCOC)[C@]1([H])CCO2	35.41	-	-
Cc1cnc(N2CC[C@H]3[C@H](C[C@@H](CN(C)C)N3C)C2)nc1	-	3.294	5.983
CCCOc1cc(F)ccc1NC(=O)NCc1noc(C)n1	-3.251	4.227	13.92
Cn1cccc(NC(=O)COc2ccc(Cl)cc2)c1=O	28.1	4.044	34.45
CC(C)CN1C(=O)CO[C@@H]2CN(C(=O)NC(C)C)C[C@H]21	-	6.379	14.04
O=C(c1ccccn1)N1CCC2(COc3ncccc3S(=O)(=O)N2)C1 (centres unmarked)	14.77	1.097	4.138
CC(=O)N1CCc2cc(C(=O)O)c(-c3ccsc3)nc2CC1.O=C(O)C(F)(F)F	25.27	-	-
CN1CC[C@H](N(Cc2ccccc2)Cc2ccccc2)C[C@H](O)C1	94.14	0.1612	8.247
O=C(O)C(F)(F)F.c1coc(CN2CCC3(CCOCC3COCC3CC3)CC2)c1 (centres unmarked)	17.37	-	-
Cc1cc(C)n(CC(C)CNC(=O)CCc2ccco2)n1 (centres unmarked)	33.53	8.377	5.759
CN(C)C(=O)CC1CC2(CCN(Cc3ccsc3)CC2)c2ccccc21 (centres unmarked)	-	2.797	12.82
FC(F)(F)c1cccc(CNc2nccc(C(F)(F)F)n2)c1	33.24	2.463	7.895
CN(Cc1ccc(Cl)s1)C(=O)CN(C)C1CCCc2ccccc21 (centres unmarked)	15.17	2.376	10.53
Cc1ccc(CNC(c2cccc(F)c2)c2nccn2C)o1.Cl (centres unmarked)	19.03	-	-
O=C(O)C(F)(F)F.[H][C@]12CC[C@@]3(N=C(CC)N(C)C3=O)[C@@]1([H])CN(Cc1cccc(Cl)c1)C2	14.5	-	-
CCN1CCC(CC(=O)N(C)C(C)c2cncs2)CC1 (centres unmarked)	-5.286	-1.671	0
CC(NCCn1c(=O)oc2ccccc21)c1ccccn1 (centres unmarked)	39.78	1.603	7.692
COCCc1noc(CNC(C)(CO)C2CCCCC2)n1 (centres unmarked)	-17.41	3.004	8.163
Cc1ncsc1C(=O)NCC1SCCc2ccccc21 (centres unmarked)	25.65	-0.5313	1.571
Cc1nn(C)c(C)c1C1CCCN1Cc1nc(N)c2ccccc2n1 (centres unmarked)	34.19	-0.6029	15.38
O=C(Nc1ccc(-c2csnn2)cc1)NC(CCO)C1CC1 (centres unmarked)	1.818	-2.299	3.54
CO[C@H]1C[C@@H](O)C12CCN(CCOc1ccc(Cl)cc1)CC2	32.39	2.936	4.762
CCOc1ccccc1CCNC(=O)NCC(O)c1ccsc1 (centres unmarked)	-20.43	3.018	11.84
CC(C)OCc1nn(C)c2c1CN(Cc1cccs1)CC2	-	2.663	-0.9009
O=C(NC1CC1)[C@H]1C[C@H]2OCC[C@H]2N(CC2CC2)C1	-	-2.943	-3.774

Repeated from the top, 4 entries:

* O=C(O)C(F)(F)F.O=C(O)C(F)(F)F.[H][C@@]12CN(Cc3nccs3)C[C@@H](C(=O)NC3CCCC3)[C@]1([H])CCO2 | Leishmania in macrophages: -15.13%
* CCC(C)CNCC1(S(C)(=O)=O)CCOCC1 (centres unmarked) | Leishmania in macrophages: -1.533%; PfKRS1: 0.9164%; LiHisRS: -3.896%
* CC(NCc1ccccn1)c1cc2c(cc1Br)OCCO2 (centres unmarked) | Leishmania in macrophages: 16.93%; PfKRS1: 3.815%; LiHisRS: 27.27%
* CN(CC(=O)NC(C)(C)C)Cc1cccc2c1OCCO2 | Leishmania in macrophages: 16.54%; PfKRS1: -3.345%; LiHisRS: 9.302%